Test results from publication PMC3609778, “Truncated and Helix-Constrained Peptides with High Affinity and Specificity for the cFos Coiled-Coil of AP-1” (PLoS ONE, 2013).
Where a SMILES comes first, the peptide text is derived from it. Bridges are numbered along the chain shown (N, C = ends). [ ]: non-standard residue; d: D form. Cha = N[C@@H](CC1CCCCC1)C(=O)O

System: cJun
Assay: CD spectra and thermal denaturation of peptide-cJun mixtures (specificity)
Format: binding
Details: for Peptide-cJun Ɵ222/208 (20ºC): CD ratio, mixture with cJun, 20 °C; for Peptide-cJun Fraction helical (ƒH): equimolar mixture with cJun, CD 222 nm, 20°C
Protocol: To establish if the truncated and constrained peptides retained the interaction specificity of the JunWCANDI parent peptide, peptides capable of interacting with cFos were also incubated at equimolar concentrations with cJun and monitored via CD spectra. […] In addition, a dimer exchange experiment was performed for the most helical peptide 24. Spectra for a cJun-peptide solution and a cFos solution should, upon mixing, generate an averaged spectrum if there was no dimer exchange. […] Spectra for both mixtures can be superimposed (Figure S4).
Supplementary file pone.0059415.s002.tiff: Figure S2 Raw thermal melting data for homo and heterodimeric complexes with cJun for constrained peptides 1 , 2 , 8 , 9, 10 , 11, 12, 17, 20, 22, and 24 . […] (TIFF) Click here for additional data file.
Supplementary file pone.0059415.s003.tiff: Figure S3 CD spectra as MRE both in isolation and as a mixture with cJun. From these raw data it is also clear that no interaction is occurring between constrained peptides and cJun. Rather, specta appear as averages of their homodimeric components (i.e. superimpose with the homomeric averages). We observe no heteromeric helical signal (red) that exceeds the average (black dotted line) of cJun (black) and the constrained peptide (blue), that would be anticipated for a non-interacting pair. (TIFF) Click here for additional data file.
Supplementary file pone.0059415.s005.doc: Table S1 Helical Data obtained via Circular Dichroism. Shown are A) homo and B) heteromeric samples. […] A ratio higher than 1 is generally indicated evidence that a coiled coil has formed, while a ratio of less than 0.9 is taken to indicate the presence of isolated helices. Shown in column two are the calculated fractional helicities taken from the Molar Residue Ellipticity at […]. Fraction helicity (ƒH) can be calculated as ƒH = (θ222−θc)/(θ222∞−θc) where θ222∞ = (−44000+250*T)*(1−k/Nr) and θc = 2220–(53*T). In these equations the wavelength dependent constant k = 2.4 (at 222 nm), Nr = the number of residues, and T = 20 degrees Celsius (293 K). The 222/208 ratio is used to provide evidence on whether the helices are monomeric or are adopting a quaternary structure. Measured helicity for the original JunWCANDI peptide and for the template on which the hydrocarbon constraints have been introduced. […] The N- and C-capping motifs have been removed for the constrained since they are considered to be largely redundant upon their introduction. (DOC) Click here for additional data file.

Structure (SMILES)	Peptide-cJun Ɵ222/208 (20ºC)	Peptide-cJun Fraction helical (ƒH)
CC[C@H](C)[C@@H]1NC(=O)[C@H](Cc2c[nH]cn2)NC(=O)[C@@H](NC(=O)[C@H](CCCNC(=N)N)NC(=O)[C@H](CC(C)C)NC(=O)[C@@H]2CC(=O)NCCCC[C@H](NC(=O)[C@H](CCCNC(=N)N)NC(=O)[C@H](CC(C)C)NC(=O)[C@@H]3CC(=O)NCCCC[C@H](NC(=O)[C@H](CCCNC(=N)N)NC(=O)[C@H](CC4CCCCC4)NC(C)=O)C(=O)N[C@@H](CCC(=O)O)C(=O)N[C@@H]([C@@H](C)CC)C(=O)N[C@@H](Cc4ccc(O)cc4)C(=O)N3)C(=O)N[C@@H](CCCCN)C(=O)N[C@@H](C)C(=O)N[C@@H](CC(N)=O)C(=O)N2)CCCCNC(=O)C[C@@H](C(=O)N[C@@H](CC2CCCCC2)C(N)=O)NC(=O)[C@H](C)NC1=O [compound 24, Ac-cyclo-(3,7; 10,14; 17,21)-ChaR[KEIYD]LR[KKAND]LR[KHIAD]Cha-NH2] (Ac-[Cha]RKEIYDLRKKANDLRKHIAD[Cha]-NH2; lactam 3-7, 10-14, 17-21)	0.81	0.30
CC[C@H](C)[C@H](NC(=O)[C@H](Cc1c[nH]cn1)NC(=O)[C@@H]1CC(=O)NCCCC[C@H](NC(=O)[C@H](C)NC(=O)[C@H](CCCCN)NC(=O)[C@H](CO)NC(=O)[C@H](CCCNC(=N)N)NC(=O)[C@H](CC(C)C)NC(=O)[C@@H]2CC(=O)NCCCC[C@H](NC(=O)[C@H](CCCCN)NC(=O)[C@H](CC3CCCCC3)NC(C)=O)C(=O)N[C@@H](CCC(=O)O)C(=O)N[C@@H]([C@@H](C)CC)C(=O)N[C@@H](Cc3ccc(O)cc3)C(=O)N2)C(=O)N[C@@H](CCSC)C(=O)N[C@@H](CC(C)C)C(=O)N[C@@H](CCCNC(=N)N)C(=O)N1)C(=O)N[C@@H](C)C(=O)N[C@@H](CCC(N)=O)C(=O)N[C@@H](CC1CCCCC1)C(N)=O [compound 20] (Ac-[Cha]KKEIYDLRSKAKMLRDHIAQ[Cha]-NH2; lactam 3-7, 13-17)	0.71	0.26
CC[C@H](C)[C@H](NC(=O)[C@H](Cc1c[nH]cn1)NC(=O)[C@@H]1CC(=O)NCCCC[C@H](NC(=O)[C@H](C)NC(=O)[C@H](CCCCN)NC(=O)[C@H](CO)NC(=O)[C@H](CCCNC(=N)N)NC(=O)[C@H](CC2CCCCC2)NC(=O)[C@@H]2CC(=O)NCCCC[C@H](NC(=O)[C@H](CCCCN)NC(=O)[C@H](CC(C)C)NC(C)=O)C(=O)N[C@@H](CCC(=O)O)C(=O)N[C@@H]([C@@H](C)CC)C(=O)N[C@@H](Cc3ccc(O)cc3)C(=O)N2)C(=O)N[C@@H](CCSC)C(=O)N[C@@H](CC(C)C)C(=O)N[C@@H](CCCNC(=N)N)C(=O)N1)C(=O)N[C@@H](C)C(=O)N[C@@H](CCC(N)=O)C(=O)N[C@@H](CC(C)C)C(N)=O [compound 17] (Ac-LKKEIYD[Cha]RSKAKMLRDHIAQL-NH2; lactam 3-7, 13-17)	0.73	0.26
